Data source: PubChem BioAssay AID1259425 (University of Nebraska Medical Center, 2018)
In all, the deposit lists about 14,000 reagents; shown is a part drawn at random. The record does not give: the time to read-out.

Test: 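Compare each knockdown with KSR1 silencing using changes in marker transcripts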 (primary screen)
Cells: HCT116 human colon cancer cells
Reagent: siRNA pool against human genes, 50 nM siRNA
Detection: 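After 50 nM siRNA pool, branched-DNA assay measures six marker transcripts per well, minus blank, normalised to the geometric mean of two housekeeping transcripts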
Direction: BNIP3L mRNA: higher = more BNIP3L transcript after knockdown; NDRG1 mRNA: higher = more NDRG1 transcript after knockdown; BNIP3 mRNA: higher = more BNIP3 transcript after knockdown; ALDOC mRNA: higher = more ALDOC transcript after knockdown; ACSL5 mRNA: higher = more ACSL5 transcript after knockdown

Target gene,"BNIP3L mRNA, set 1","NDRG1 mRNA, set 1","BNIP3 mRNA, set 1","ALDOC mRNA, set 1","ACSL5 mRNA, set 1"
NMU (neuromedin U),0.0339,0.174,0.21,0.013,0.164
KLK15 (kallikrein related peptidase 15),0.0634,0.61,0.203,0.00533,0.121
PTPRR (protein tyrosine phosphatase receptor type R),0.272,0.182,0.555,0,0.63
UNG (uracil DNA glycosylase),0.186,0.0169,0.364,0.0418,0.143
PRMT5 (protein arginine methyltransferase 5),0.11,0.477,0.244,0.0333,0.25
PLAAT3 (phospholipase A and acyltransferase 3),0.13,0.0689,0.249,0.0112,0.185
TMED10 (transmembrane p24 trafficking protein 10),0.158,2,0.322,0.0108,0.351
CARTPT (CART prepropeptide),0.135,0.281,0.544,0.0277,0.244
FAM117A (family with sequence similarity 117 member A),0.261,0.0917,0.431,0.0594,0.0641
FOCAD (focadhesin),0.104,0.263,0.24,0.0243,0.173
KRT84 (keratin 84),0.095,0.0749,0.201,0.0271,0.114
TCAF1 (TRPM8 channel associated factor 1),0.101,0.216,0.425,0.0548,0.194
UBAP2 (ubiquitin associated protein 2),0.11,0.0812,0.277,0.0246,0.0625
H2BC14 (H2B clustered histone 14),0.109,0.335,0.519,0.0593,0.325
MED8 (mediator complex subunit 8),0.143,1.04,0.413,0.0784,0.263
MT-ATP6 (mitochondrially encoded ATP synthase 6),0.0813,0.186,0.468,0.0418,0.232
MAN1A2 (mannosidase alpha class 1A member 2),0.142,0.332,0.321,0.0362,0.168
ALDH3A2 (aldehyde dehydrogenase 3 family member A2),0.116,0.0965,0.198,0.0187,0.191
ELOVL4 (ELOVL fatty acid elongase 4),0.219,0.39,0.482,0.0345,0.24
CDY1 (chromodomain Y-linked 1),0.118,0.42,0.209,0.0143,0.231
GPN3 (GPN-loop GTPase 3),0.0657,0.303,0.242,0.0145,0.219
MAP3K4 (mitogen-activated protein kinase kinase kinase 4),0.135,0.175,0.304,0.0226,0.127
EFCAB6 (EF-hand calcium binding domain 6),0.0987,0.137,0.289,0.0355,0.108
MTMR3 (myotubularin related protein 3),0.0888,0.154,0.314,0.0209,0.213
SNHG32 (small nucleolar RNA host gene 32),0.112,0.162,0.372,0.0216,0.169
"ABHD17C (abhydrolase domain containing 17C, depalmitoylase)",0.108,0.23,0.545,0.041,0.223
SP100 (SP100 nuclear body protein),0.0851,0.275,0.294,0.0184,0.205
CELF5 (CUGBP Elav-like family member 5),0.144,0.38,0.3,0.0313,0.204
ARID4A (AT-rich interaction domain 4A),0.164,0.145,0.325,0.0107,0.162
SNX10 (sorting nexin 10),0.12,1.15,0.517,0.0253,0.516
GABARAPL2 (GABA type A receptor associated protein like 2),0.0514,0.243,0.231,0.0425,0.13
PHF20L1 (PHD finger protein 20 like 1),0.0593,0.103,0.22,0.00907,0.0808
NDUFAB1 (NADH:ubiquinone oxidoreductase subunit AB1),0.1,0.392,0.25,0.0265,0.139
"RBBP6 (RB binding protein 6, ubiquitin ligase)",0.122,0.668,0.242,0.0207,0.186
CHGA (chromogranin A),0.105,0.199,0.434,0.00503,0.0798
COL5A2 (collagen type V alpha 2 chain),0.0788,0.129,0.329,0.0277,0.241
FYB1 (FYN binding protein 1),0.0637,0.262,0.221,0.0134,0.187
ACSM3 (acyl-CoA synthetase medium chain family member 3),0.175,0.23,0.231,0.0299,0.208
LRIG1 (leucine rich repeats and immunoglobulin like domains 1),0.107,0.115,0.223,0.00818,0.0843
MDGA1 (MAM domain containing glycosylphosphatidylinositol anchor 1),0.179,0.143,0.438,0.0486,0.249
SLC44A1,0.138,0.197,0.332,0.0112,0.169
C10orf88 (chromosome 10 open reading frame 88),0.141,0.244,0.337,0.0485,0.203
CYP21A2 (cytochrome P450 family 21 subfamily A member 2),0.0594,0.36,0.271,0.000765,0.163
TEKT1 (tektin 1),0.206,0.232,0.369,0.103,0.313
NUP85 (nucleoporin 85),0.0988,0.103,0.274,0.0331,0.103
TCTN3 (tectonic family member 3),0.0708,0.19,0.409,0.017,0.156
TMEM163 (transmembrane protein 163),0.158,0.411,0.373,0.0245,0.214
LINC03124 (long independently transcribed non-coding RNA 3124),0.124,0.348,0.238,0.0165,0.0492
MYH9 (myosin heavy chain 9),0.0981,0.0745,0.294,0.00585,0.142
PHF12 (PHD finger protein 12),0.17,0.191,0.478,0.0603,0.273
KCNS3,0.0889,0.295,0.167,0.0171,0.0962
SRGAP3 (SLIT-ROBO Rho GTPase activating protein 3),0.0916,0.294,0.25,0.0116,0.204
FAM193B (family with sequence similarity 193 member B),0.1,0.253,0.179,0.0599,0.111
CDCP1 (CUB domain containing protein 1),0.068,0.345,0.337,0.0237,0.195
DYSF (dysferlin),0.0872,0.174,0.471,0.0192,0.036
CTNNBL1 (catenin beta like 1),0.099,0.0899,0.22,0.0456,0.0609
GNAT1 (G protein subunit alpha transducin 1),0.0635,0.076,0.323,0.02,0.112
SEMA3A (semaphorin 3A),0.102,0.144,0.39,0.0298,0.103
ISG20L2 (interferon stimulated exonuclease gene 20 like 2),0.136,0.287,0.268,0.0349,0.306
IL33R (interleukin 33 receptor),0.153,0.265,0.267,0.0455,0.1
LHB (luteinizing hormone subunit beta),0.125,0.458,0.272,0.0308,0.161
ARL6IP5 (ARF like GTPase 6 interacting protein 5),0.128,0.206,0.376,0.0469,0.21
S1PR4 (sphingosine-1-phosphate receptor 4),0.147,0.19,0.184,0.0119,0.428

3 entries from above, ordered by “NDRG1 mRNA, set 1”, high to low.
Target gene,"BNIP3L mRNA, set 1","NDRG1 mRNA, set 1","BNIP3 mRNA, set 1","ALDOC mRNA, set 1","ACSL5 mRNA, set 1"
LHB (luteinizing hormone subunit beta),0.125,0.458,0.272,0.0308,0.161
IL33R (interleukin 33 receptor),0.153,0.265,0.267,0.0455,0.1
ARL6IP5 (ARF like GTPase 6 interacting protein 5),0.128,0.206,0.376,0.0469,0.21
